{"source": "patent US9242009B2", "about": "“Compositions and methods to treat neurodegenerative diseases” (The General Hospital Corporation, priority 2012, dated 2016)", "assay": "Sulfide release from H2S donors in cell-free culture medium and buffers (HPLC, MBB)", "type": "physicochemical", "conditions": "20 μM compound added at time 0; DMEM/F12 with 10% FBS without cells; pH 7.4; 37° C.", "data": [{"smiles": "O=C(O)c1ccc(-c2cssc2=S)cc1", "note": "[ACS48, 4-(3-thioxo-3H-1,2-dithiol-4-yl)-benzoic acid]", "values": [{"measurement": "Sulfide levels in the medium after 24 hours", "value": 3.6, "unit": "µM"}]}, {"smiles": "C[C@]12C[C@@H]3C[C@](C)(C1)C[C@@](NC(=O)c1ccc(-c4cssc4=S)cc1)(C3)C2", "note": "[S-memantine, N-((1r,3R,5S,7r)-3,5-dimethyladamantan-1-yl)-4-(3-thioxo-3H-1,2-dithiol-4-yl)-benzamide]", "values": [{"measurement": "Sulfide levels in the medium after 24 hours", "value": 5.1, "unit": "µM"}]}]}
